# In the supplement of paper PMC7666118:
# Sequences of proteins named here, by UniProt entry; tags and fusion partners are left off. A change or cut given only in a name is not applied to a line headed by its entry.
# UniProt Q9BV79: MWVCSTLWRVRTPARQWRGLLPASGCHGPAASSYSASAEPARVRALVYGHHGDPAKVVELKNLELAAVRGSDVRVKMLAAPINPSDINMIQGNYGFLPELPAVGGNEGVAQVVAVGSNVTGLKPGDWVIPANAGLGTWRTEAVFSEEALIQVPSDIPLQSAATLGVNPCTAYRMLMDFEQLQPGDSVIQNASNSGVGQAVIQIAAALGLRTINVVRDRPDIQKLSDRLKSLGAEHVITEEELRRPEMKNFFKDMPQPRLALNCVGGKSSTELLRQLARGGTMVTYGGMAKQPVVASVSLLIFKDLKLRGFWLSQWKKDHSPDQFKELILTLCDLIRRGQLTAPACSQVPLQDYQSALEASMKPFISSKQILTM
# UniProt Q9NXL9: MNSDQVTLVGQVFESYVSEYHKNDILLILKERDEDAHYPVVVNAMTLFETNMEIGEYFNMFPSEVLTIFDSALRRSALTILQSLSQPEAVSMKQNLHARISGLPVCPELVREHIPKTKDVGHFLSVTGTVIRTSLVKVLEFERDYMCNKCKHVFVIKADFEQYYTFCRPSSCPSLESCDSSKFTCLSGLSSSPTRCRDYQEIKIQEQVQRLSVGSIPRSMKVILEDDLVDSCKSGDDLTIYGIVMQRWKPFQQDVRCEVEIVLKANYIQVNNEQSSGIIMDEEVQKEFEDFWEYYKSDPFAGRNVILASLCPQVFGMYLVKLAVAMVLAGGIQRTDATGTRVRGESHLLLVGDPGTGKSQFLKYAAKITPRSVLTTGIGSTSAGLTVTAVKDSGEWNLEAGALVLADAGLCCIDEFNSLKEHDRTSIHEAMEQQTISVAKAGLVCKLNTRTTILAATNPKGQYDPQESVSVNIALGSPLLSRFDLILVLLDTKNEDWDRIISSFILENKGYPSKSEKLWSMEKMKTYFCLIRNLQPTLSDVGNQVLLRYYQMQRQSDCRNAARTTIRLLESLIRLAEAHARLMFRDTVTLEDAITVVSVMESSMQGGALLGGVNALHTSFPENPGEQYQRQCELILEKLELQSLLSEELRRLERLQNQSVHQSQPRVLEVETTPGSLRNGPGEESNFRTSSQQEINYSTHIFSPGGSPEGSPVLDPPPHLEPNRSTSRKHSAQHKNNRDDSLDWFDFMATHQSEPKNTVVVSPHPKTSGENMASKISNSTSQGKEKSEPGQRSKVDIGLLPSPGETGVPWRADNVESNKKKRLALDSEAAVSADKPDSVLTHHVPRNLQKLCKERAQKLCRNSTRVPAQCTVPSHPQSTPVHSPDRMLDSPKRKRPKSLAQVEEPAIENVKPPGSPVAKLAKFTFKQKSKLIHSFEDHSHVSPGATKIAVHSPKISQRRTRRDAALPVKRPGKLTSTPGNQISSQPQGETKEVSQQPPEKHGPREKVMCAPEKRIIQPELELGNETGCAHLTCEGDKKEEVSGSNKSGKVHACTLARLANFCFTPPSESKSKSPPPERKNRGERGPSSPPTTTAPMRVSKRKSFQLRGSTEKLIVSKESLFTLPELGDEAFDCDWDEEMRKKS
# UniProt O75448: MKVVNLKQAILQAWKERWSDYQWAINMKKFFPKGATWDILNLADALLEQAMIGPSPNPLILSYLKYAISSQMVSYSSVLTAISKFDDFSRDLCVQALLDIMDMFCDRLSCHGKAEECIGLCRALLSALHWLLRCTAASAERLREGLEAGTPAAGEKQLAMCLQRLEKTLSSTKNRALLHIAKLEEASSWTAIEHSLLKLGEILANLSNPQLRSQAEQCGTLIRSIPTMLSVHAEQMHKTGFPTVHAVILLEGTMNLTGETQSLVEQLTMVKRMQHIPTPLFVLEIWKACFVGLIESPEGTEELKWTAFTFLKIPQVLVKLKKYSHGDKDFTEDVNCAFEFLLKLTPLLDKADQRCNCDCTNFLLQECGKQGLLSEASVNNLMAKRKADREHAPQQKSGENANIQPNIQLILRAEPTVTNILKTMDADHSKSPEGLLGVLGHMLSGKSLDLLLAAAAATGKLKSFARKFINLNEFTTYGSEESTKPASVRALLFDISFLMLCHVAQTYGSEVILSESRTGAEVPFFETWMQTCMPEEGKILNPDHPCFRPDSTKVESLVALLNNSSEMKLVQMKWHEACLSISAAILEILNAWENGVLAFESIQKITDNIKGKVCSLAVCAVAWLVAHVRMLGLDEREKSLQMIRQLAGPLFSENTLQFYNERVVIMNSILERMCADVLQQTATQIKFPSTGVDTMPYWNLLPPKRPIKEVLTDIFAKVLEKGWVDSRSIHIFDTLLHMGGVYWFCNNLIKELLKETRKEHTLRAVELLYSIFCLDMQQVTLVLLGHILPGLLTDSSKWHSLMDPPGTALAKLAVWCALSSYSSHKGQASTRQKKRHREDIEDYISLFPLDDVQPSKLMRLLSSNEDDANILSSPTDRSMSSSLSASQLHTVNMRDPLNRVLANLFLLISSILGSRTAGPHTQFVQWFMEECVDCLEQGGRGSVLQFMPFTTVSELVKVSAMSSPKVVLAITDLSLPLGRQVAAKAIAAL
# UniProt P29372, whole entry: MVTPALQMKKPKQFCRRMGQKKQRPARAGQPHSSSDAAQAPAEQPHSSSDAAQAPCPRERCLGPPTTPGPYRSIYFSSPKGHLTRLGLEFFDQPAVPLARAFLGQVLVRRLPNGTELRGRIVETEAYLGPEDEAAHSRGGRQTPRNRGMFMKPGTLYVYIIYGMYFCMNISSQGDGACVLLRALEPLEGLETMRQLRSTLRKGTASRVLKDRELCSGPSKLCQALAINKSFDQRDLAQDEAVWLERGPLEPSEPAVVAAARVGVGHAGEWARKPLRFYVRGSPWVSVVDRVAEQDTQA
# UniProt Q99583: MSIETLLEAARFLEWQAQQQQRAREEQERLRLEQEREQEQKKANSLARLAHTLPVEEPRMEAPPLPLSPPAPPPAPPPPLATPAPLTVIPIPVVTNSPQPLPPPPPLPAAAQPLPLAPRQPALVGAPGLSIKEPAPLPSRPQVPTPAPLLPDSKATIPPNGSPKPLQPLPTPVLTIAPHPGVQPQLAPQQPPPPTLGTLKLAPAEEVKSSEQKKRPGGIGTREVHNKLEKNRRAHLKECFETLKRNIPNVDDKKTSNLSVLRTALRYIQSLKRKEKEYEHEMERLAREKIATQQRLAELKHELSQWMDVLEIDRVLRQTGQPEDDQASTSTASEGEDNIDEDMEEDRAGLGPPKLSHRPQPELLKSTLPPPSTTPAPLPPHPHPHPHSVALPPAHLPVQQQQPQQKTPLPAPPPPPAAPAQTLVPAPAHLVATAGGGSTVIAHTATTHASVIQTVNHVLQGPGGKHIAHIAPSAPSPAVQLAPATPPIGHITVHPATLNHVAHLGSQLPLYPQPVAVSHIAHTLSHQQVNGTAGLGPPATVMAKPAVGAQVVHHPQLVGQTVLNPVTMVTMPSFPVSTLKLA
# UniProt O60244: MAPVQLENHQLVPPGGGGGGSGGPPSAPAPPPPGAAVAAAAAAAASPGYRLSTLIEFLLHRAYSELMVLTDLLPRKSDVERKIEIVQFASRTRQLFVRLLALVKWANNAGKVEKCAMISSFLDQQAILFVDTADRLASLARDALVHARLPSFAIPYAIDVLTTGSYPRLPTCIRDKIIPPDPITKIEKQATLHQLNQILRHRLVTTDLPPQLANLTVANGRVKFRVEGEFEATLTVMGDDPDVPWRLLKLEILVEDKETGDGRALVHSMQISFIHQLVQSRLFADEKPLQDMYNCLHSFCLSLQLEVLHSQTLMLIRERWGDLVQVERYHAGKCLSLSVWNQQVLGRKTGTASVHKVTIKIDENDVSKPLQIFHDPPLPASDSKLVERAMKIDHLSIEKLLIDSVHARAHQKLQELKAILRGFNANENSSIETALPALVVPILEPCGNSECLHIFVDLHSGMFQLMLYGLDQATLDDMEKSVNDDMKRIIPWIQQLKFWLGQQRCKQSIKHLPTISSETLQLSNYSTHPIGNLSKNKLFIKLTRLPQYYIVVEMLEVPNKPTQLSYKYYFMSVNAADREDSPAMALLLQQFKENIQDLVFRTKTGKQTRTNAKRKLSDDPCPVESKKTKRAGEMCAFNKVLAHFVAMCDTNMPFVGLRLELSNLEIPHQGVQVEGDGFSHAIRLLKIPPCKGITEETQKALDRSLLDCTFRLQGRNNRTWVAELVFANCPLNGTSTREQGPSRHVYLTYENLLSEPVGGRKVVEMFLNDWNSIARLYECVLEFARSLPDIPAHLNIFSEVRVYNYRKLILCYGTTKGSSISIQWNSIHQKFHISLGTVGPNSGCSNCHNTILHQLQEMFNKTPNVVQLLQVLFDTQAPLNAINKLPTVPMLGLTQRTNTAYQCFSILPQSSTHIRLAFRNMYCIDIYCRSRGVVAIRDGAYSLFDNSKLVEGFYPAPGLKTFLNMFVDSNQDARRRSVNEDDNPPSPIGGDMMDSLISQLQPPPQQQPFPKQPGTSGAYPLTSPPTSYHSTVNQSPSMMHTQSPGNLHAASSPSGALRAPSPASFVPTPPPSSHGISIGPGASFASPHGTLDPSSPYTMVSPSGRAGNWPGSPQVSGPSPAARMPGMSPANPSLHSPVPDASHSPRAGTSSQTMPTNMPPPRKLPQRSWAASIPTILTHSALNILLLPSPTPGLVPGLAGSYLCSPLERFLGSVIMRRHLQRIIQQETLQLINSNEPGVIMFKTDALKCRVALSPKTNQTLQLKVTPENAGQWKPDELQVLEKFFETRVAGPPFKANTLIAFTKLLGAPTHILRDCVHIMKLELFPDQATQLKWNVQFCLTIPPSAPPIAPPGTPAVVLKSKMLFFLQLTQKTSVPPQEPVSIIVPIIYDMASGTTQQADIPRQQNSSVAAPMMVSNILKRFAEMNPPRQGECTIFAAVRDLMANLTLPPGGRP
# UniProt Q02078: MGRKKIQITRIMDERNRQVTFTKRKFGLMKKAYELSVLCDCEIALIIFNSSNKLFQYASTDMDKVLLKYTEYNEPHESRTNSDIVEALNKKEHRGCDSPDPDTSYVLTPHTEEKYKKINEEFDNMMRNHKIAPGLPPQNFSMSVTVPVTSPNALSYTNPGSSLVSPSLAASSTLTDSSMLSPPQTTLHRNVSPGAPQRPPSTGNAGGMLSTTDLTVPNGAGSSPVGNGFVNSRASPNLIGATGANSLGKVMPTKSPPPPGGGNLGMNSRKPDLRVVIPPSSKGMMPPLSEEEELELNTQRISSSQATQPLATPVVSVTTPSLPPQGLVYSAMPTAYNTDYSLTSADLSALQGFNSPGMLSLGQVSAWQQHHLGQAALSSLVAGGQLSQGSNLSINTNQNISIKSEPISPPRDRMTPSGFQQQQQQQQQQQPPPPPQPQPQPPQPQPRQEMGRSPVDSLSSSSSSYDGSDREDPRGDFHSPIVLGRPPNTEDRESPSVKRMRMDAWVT
# UniProt Q8IVS2: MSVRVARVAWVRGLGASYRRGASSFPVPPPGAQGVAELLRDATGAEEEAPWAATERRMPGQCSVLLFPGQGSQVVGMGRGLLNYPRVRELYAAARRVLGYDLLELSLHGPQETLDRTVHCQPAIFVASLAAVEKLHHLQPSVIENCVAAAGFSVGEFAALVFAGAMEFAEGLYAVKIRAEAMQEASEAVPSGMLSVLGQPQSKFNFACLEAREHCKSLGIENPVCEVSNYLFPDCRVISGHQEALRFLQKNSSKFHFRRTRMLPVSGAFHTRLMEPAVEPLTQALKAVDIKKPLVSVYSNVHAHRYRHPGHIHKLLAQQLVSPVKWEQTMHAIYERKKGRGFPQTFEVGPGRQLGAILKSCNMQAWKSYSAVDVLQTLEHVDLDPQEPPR
# The list shows a part of the results.
# Compound: COc1ccc(Cn2ccc3ccc(C(=O)NO)cc32)cc1
# Test: dose-dependent thermal stabilisation call (2D-TPP, DLPTP, 10% FDR) (binary (1 = stabilised)); higher = stabilised by the compound
# Conditions: system: HL-60 intact cells; concentration range 0.04-10 µM
row,Target,dose-dependent thermal stabilisation call
1,MRPS27 (UniProt Q92552),inactive: 0
2,MECR (UniProt Q9BV79),inactive: 0
3,MCM9 (UniProt Q9NXL9),inactive: 0
4,MED24 (UniProt O75448),inactive: 0
5,MPG (UniProt P29372),inactive: 0
6,MRPL53 (UniProt Q96EL3),inactive: 0
7,MNT (UniProt Q99583),inactive: 0
8,MED14 (UniProt O60244),inactive: 0
9,MEF2A (UniProt Q02078),inactive: 0
10,MCAT (UniProt Q8IVS2),inactive: 0
